Test results taken from paper doi:10.1101/2020.10.05.326181.
Read-outs that look alike come from different tables or passages of the source. Results are given in words; binding and its absence hold for the method and conditions named. Binding seen in cells or lysates may run through a third protein. Here binding means that the protein was enriched with, or labelled near, the bait; the list need not be complete. For part of these data: No binding means not detected with the bait.

Amino acid sequences for entries named in this document (tags omitted). A change or cut given only in a name is not applied to a line headed by its entry.
UniProt Q92547: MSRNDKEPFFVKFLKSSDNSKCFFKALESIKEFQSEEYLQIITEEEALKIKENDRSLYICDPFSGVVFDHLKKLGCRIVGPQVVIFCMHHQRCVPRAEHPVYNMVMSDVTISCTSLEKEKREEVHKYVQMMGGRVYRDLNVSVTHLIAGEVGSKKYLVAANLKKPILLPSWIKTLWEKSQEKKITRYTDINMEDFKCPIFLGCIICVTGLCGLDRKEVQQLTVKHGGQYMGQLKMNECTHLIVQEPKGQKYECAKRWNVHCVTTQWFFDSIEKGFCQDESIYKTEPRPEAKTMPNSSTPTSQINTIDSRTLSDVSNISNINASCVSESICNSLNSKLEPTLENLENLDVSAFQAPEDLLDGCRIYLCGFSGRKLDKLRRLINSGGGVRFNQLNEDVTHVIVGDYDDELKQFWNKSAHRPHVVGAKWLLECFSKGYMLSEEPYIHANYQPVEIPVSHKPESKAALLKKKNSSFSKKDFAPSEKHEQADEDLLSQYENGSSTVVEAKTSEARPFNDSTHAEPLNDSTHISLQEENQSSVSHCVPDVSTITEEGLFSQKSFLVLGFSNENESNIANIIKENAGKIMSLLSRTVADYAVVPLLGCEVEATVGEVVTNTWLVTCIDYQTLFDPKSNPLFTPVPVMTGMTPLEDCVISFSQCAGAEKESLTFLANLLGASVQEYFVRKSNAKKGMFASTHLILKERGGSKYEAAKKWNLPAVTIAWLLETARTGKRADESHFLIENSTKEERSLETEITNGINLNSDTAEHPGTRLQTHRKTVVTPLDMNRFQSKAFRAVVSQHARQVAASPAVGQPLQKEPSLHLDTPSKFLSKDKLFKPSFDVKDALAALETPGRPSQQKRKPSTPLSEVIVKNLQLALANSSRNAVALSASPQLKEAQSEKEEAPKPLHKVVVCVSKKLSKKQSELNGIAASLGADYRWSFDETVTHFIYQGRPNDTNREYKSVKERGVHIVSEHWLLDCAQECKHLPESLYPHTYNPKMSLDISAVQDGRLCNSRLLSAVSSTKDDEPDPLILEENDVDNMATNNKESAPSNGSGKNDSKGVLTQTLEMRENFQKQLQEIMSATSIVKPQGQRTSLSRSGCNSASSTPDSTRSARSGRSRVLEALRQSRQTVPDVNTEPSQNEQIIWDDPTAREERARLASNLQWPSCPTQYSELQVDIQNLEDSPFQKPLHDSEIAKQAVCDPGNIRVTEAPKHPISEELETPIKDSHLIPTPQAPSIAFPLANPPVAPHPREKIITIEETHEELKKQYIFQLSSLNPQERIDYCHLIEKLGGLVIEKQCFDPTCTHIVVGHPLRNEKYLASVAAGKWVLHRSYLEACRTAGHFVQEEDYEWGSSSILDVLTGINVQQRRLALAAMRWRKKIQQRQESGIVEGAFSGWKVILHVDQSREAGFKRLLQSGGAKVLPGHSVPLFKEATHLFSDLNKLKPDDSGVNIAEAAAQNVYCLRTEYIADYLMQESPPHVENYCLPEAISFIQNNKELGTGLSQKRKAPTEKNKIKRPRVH

Assays:
Assay in all cases: proximity labelling
[1] = biological target: Flag-BirA*-TopBP1 WT (human) (UniProt Q92547)
[2] = biological target: Flag-BirA*-TopBP1 W1145R (human) (UniProt Q92547)
[3] = biological target: Flag-BirA*-TopBP1 WT (human) (UniProt Q92547); remark: listed apart in the source

binding [1]: binds
binding [2]: no binding
binding [3]: binds
B1: nucleolar protein NOL11 (protein, UniProt Q9H8H0 1-719)
chain: MAALEEEFTLSSVVLSAGPEGLLGVEQSDKTDQFLVTDSGRTVILYKVSDQKPLGSWSVKQGQIITCPAVCNFQTGEYVVVHDNKVLRIWNNEDVNLDKVFKATLSAEVYRILSVQGTEPLVLFKEGAVRGLEALLADPQQKIETVISDEEVIKWTKFFVVFRHPVLIFITEKHGNYFAYVQMFNSRILTKYTLLLGQDENSVIKSFTASVDRKFISLMSLSSDGCIYETLIPIRPADPEKNQSLVKSLLLKAVVSGNARNGVALTALDQDHVAVLGSPLAASKECLSVWNIKFQTLQTSKELPQGTSGQLWYYGEHLFMLHGKSLTVIPYKCEVSSLAGALGKLKHSQDPGTHVVSHFVNWETPQGCGLGFQNSEQSRRILRRRKIEVSLQPEVPPSKQLLSTIMKDSEKHIEVEVRKFLALKQTPDFHTVIGDTVTGLLERCKAEPSFYPRNCLMQLIQTHVLSYSLCPDLMEIALKKKDVQLLQLCLQQFPDIPESVTCACLKIFLSIGDDSLQETDVNMESVFDYSINSVHDEKMEEQTEILQNGFNPEEDKCNNCDQELNKKPQDETKESTSCPVVQKRAALLNAILHSAYSETFLLPHLKDIPAQHITLFLKYLYFLYLKCSENATMTLPGIHPPTLNQIMDWICLLLDANFTVVVMMPEAKRLLINLYKLVKSQISVYSELNKIEVSFRELQKLNQEKNNRGLYSIEVLELF
